This note sets out measurements from PubChem BioAssay AID330 (DTP/NCI, 2004).

The assay relates to P388 leukemia ip, CD2F1 mice, survival T/C. Description: NCI In Vivo Anticancer Drug Screen. Data for tumor model P388 Leukemia (intraperitoneal) in CD2F1 (CDF1) mice. The settings on record: T/C endpoint: median survival time, higher T/C = longer survival.
[1] abbreviates: dose: 200.0 mg/kg/injection, schedule: Q01DX005 (ip), vehicle: Klucel (hydroxypropylcellulose) (HPC).
The mark [2] stands for this setting: dose: 100.0 mg/kg/injection, schedule: Q01DX009 (ip), vehicle: Klucel (hydroxypropylcellulose) (HPC).
[3] abbreviates: dose: 200.0 mg/kg/injection, schedule: Q01DX009 (ip), vehicle: Klucel (hydroxypropylcellulose) (HPC).
[4] abbreviates: dose: 50.0 mg/kg/injection, schedule: Q04DX003 (ip), vehicle: saline.
Where [5] appears, read: dose: 120.0 mg/kg/injection, schedule: Q01DX005 (ip), vehicle: saline with Tween-80.
The mark [6] stands for this setting: dose: 240.0 mg/kg/injection, schedule: Q01DX005 (ip), vehicle: saline with Tween-80.
[7] abbreviates: dose: 200.0 mg/kg/injection, schedule: Q01DX009 (ip), vehicle: saline with Tween-80.
[8] abbreviates: dose: 25.0 mg/kg/injection, schedule: Q01DX005 (ip), vehicle: saline.
The mark [9] stands for this setting: dose: 50.0 mg/kg/injection, schedule: Q01DX005 (ip), vehicle: saline.
The mark [10] stands for this setting: dose: 100.0 mg/kg/injection, schedule: Q01DX005 (ip), vehicle: saline.
Setting [11] is: dose: 200.0 mg/kg/injection, schedule: Q01DX005 (ip), vehicle: saline.
Where [12] appears, read: dose: 100.0 mg/kg/injection, schedule: Q01DX009 (ip), vehicle: saline with Tween-80.
The mark [13] stands for this setting: dose: 25.0 mg/kg/injection, schedule: Q01DX009 (ip), vehicle: Klucel (hydroxypropylcellulose) (HPC).
[14] abbreviates: dose: 100.0 mg/kg/injection, schedule: Q01DX009 (ip), vehicle: saline.
Setting [15] is: dose: 400.0 mg/kg/injection, schedule: Q01DX009 (ip), vehicle: saline with Tween-80.
Setting [16] is: dose: 100.0 mg/kg/injection, schedule: Q04DX003 (ip), vehicle: suspension in saline.

The list does not hold the whole screen: it is rich in T/C values a quarter to a half above the control, in often repeated tests (any T/C) and in doses without a T/C. Other doses and runs of a compound stand elsewhere. T/C gives the treated animals as a percentage of the vehicle group. Some doses have a count of surviving animals in place of a T/C: the source files T/C as zero there, which appears to mark a toxic dose or a test without result, not a measured value. Some survivor counts are full or nearly so, which does not show that the dose was tolerated: the source hardly ever lists a survival T/C far under the control, and the zero likely stands for such cases as well. Survivors were counted at the toxicity check, usually on the fifth day, unless a day is given; later deaths do not show. Schedule codes are those of the source, taken here to give the interval after Q, in days (D) or hours (H), and the number of doses after X. Some entries were tested several times; the results are listed from low to high. Where survival is the endpoint, this PubChem deposit counts one and a half times the control or more as active, and values a quarter to a half above the control carry no call in these data; other NCI protocols may use other cut-offs. Some T/C values are followed by the survivors on the day toxicity was checked, most often the fifth; without a count, all were alive then.

As to `CC1CCC(C(C)C)C(NC(=O)c2cc[n+](C)cc2)C1` (stereo not drawn), the survivor count under setting [1] is 0 of 6.
Regarding `OCc1cnccc1Cl`, the survivor count (dose: 240.0 mg/kg/injection, schedule: Q01DX005 (ip), vehicle: saline) is given as 1 of 6.
`C[N+](C)(C)C1(Cc2ccccc2)c2ccccc2-c2ccc(Cl)cc21` (stereo not drawn): the survivor count is, setting by setting: under setting [2], 1 of 6; under setting [3], 0 of 6.
For the compound `CS(=O)(=O)Nc1ccc(Nc2c3ccccc3nc3cc(Cl)ccc23)cc1`, the T/C under setting [4] is 145 % of control.
Consider `C[CH2][Sn]([F])([CH2]C)[CH2]C`, for which the T/C was 137 % of control (dose: 0.37 mg/kg/injection, schedule: Q01DX009 (ip), vehicle: saline with Tween-80); 148 % of control (dose: 0.75 mg/kg/injection, schedule: Q01DX009 (ip), vehicle: saline with Tween-80); 142 % of control (dose: 1.5 mg/kg/injection, schedule: Q01DX009 (ip), vehicle: saline with Tween-80); 125 % of control (dose: 3.0 mg/kg/injection, schedule: Q01DX009 (ip), vehicle: Klucel (hydroxypropylcellulose) (HPC)). Moreover, the survivor count is, setting by setting: (dose: 6.0 mg/kg/injection, schedule: Q01DX009 (ip), vehicle: Klucel (hydroxypropylcellulose) (HPC)) 2 of 6, 3 of 6, 5 of 6; (dose: 6.0 mg/kg/injection, schedule: Q01DX009 (ip), vehicle: saline with Tween-80) 5 of 6; (dose: 12.0 mg/kg/injection, schedule: Q01DX009 (ip), vehicle: Klucel (hydroxypropylcellulose) (HPC)) 0 of 6.
`CN(CN(C)N=Nc1ccc(Br)cc1)CN(C)N=Nc1ccc(Br)cc1`: for the setting “dose: 240.0 mg/kg/injection, schedule: Q01DX005 (ip), vehicle: Klucel (hydroxypropylcellulose) (HPC)”, the survivor count is reported as 6 of 6.
On to `C[C@]12CCCC[C@@H]1CC[C@@H]1[C@@H]2[C@@H](O)C[C@]2(C)[C@@H](O)CC[C@@H]12`, for which the survivor count (dose: 400.0 mg/kg/injection, schedule: Q04DX003 (ip), vehicle: saline with Tween-80) was 2 of 6.
On to `CC[N+](C)(CC)CCl`, for which the survivor count is, setting by setting: (dose: 30.0 mg/kg/injection, schedule: Q01DX005 (ip), vehicle: saline) 2 of 6; (dose: 60.0 mg/kg/injection, schedule: Q01DX005 (ip), vehicle: saline with Tween-80) 0 of 6; under setting [5], 0 of 6; under setting [6], 0 of 6.
On to `CCCCCC(CN(C)C)C(=O)CC(SCC)c1ccccc1` (stereo not drawn), for which the survivor count is 3 of 6 (dose: 50.0 mg/kg/injection, schedule: Q01DX009 (ip), vehicle: water); 0 of 6 (dose: 100.0 mg/kg/injection, schedule: Q01DX009 (ip), vehicle: water); 0 of 6 (dose: 200.0 mg/kg/injection, schedule: Q01DX009 (ip), vehicle: water).
As for `C/C(=N\NC(=S)Nc1ccc(N(C)C)cc1)c1ccccn1`, under setting [7], the survivor count is 4 of 6.
On to `OCCN1CCN(CC/C=C2/c3ccccc3Sc3ccc(Cl)cc32)CC1`, for which the survivor count is recorded as 1 of 6 (dose: 12.5 mg/kg/injection, schedule: Q01DX005 (ip), vehicle: saline); 6 of 6 under setting [8]; 0 of 6 under setting [9]; 0 of 6 under setting [10]; 0 of 6 under setting [11]. For the same compound, the T/C is, setting by setting: (dose: 22.0 mg/kg/injection, schedule: Q04DX003 (ip), vehicle: saline) 145 % of control; under setting [4], 127 % of control.
For `Cn1ncc2c(NCc3ccccc3)ncnc21`, the survivor count is listed as 6 of 6 (dose: 50.0 mg/kg/injection, schedule: Q01DX009 (ip), vehicle: saline with Tween-80); 6 of 6 under setting [12]; 3 of 6 under setting [7].
`C(=N\SC(c1ccccc1)(c1ccccc1)c1ccccc1)/c1ccccc1`: for the setting “dose: 200.0 mg/kg/injection, schedule: Q01DX005 (ip), vehicle: saline with Tween-80”, the survivor count is given as 6 of 6.
For the compound `Cc1ccc(S(=O)(=O)N(C)C2c3ccccc3Oc3ccccc32)cc1`, the survivor count under setting [13] is 6 of 6.
On to `CN(C)c1ccc(N=Cc2cc[n+](C)cc2)cc1`, for which the survivor count under setting [14] is 0 of 6.
For the compound `CCOc1nc(N)nc(C)c1N=Nc1ccc(Cl)cc1`, the survivor count (dose: 240.0 mg/kg/injection, schedule: Q01DX005 (ip), vehicle: Klucel + Tween-80) was 4 of 6.
`CSC(SC)(SC)SC`: the survivor count reads like this: under setting [7], 2 of 6; under setting [15], 0 of 6.
As to `O=S(=O)(CCCCl)SCCCCl`, the survivor count is on record as 0 of 6 under setting [5] and 0 of 6 under setting [6].
Take `COc1ccc(/C=C/c2ccnnc2)cc1`: under setting [14], the survivor count is reported as 5 of 6.
For the compound `CN1C2CCC1C(Br)C(=O)C2` (stereo not drawn), the T/C under setting [11] is 127 and 128 % of control. Moreover, under “dose: 400.0 mg/kg/injection, schedule: Q01DX005 (ip), vehicle: saline”, the survivor count was 0 of 6 and 1 of 6.
As for `C(=C/c1cc2ccc(C3=NCCN3)cc2o1)/c1cc2cc(C3=NCCN3)ccc2[nH]1`, the T/C reads like this: (dose: 12.5 mg/kg/injection, schedule: Q04DX003 (ip), vehicle: suspension in saline) 131 % of control; (dose: 25.0 mg/kg/injection, schedule: Q04DX003 (ip), vehicle: suspension in saline) 125 % of control; (dose: 50.0 mg/kg/injection, schedule: Q04DX003 (ip), vehicle: suspension in saline) 134 % of control; under setting [16], 143 % of control [4 of 6 alive]. Moreover, the survivor count was 1 of 6 under setting [16] and 0 of 6 (dose: 400.0 mg/kg/injection, schedule: Q04DX003 (ip), vehicle: suspension in saline).
Consider `CC(=O)OC(NC(=O)c1cc(C)cc(C)c1)c1ccncc1` (stereo not drawn), for which, under setting [1], the survivor count is 0 of 6.
As for `Cc1cc(N2CCOCC2)n2c(nc3ccccc32)c1C#N`, the survivor count under setting [6] is on record as 5 of 6.
Consider `O=C(NNC(=O)c1ccncc1)Nc1cccc(Cl)c1`, for which the survivor count under setting [3] was 5 of 6.
Take `CN(C)CCCNC(=O)c1ccc2c(c1)C(=O)c1ccccc1C2=O`: the survivor count (dose: 400.0 mg/kg/injection, schedule: Q04DX003 (ip), vehicle: water) is 0 of 6.
In the case of `O=c1nc2n(CC(O)CN3CCCCC3)c3cc(Cl)ccc3nc-2c(=O)[nH]1` (stereo not drawn), the survivor count is given as 2 of 6 under setting [8], 0 of 6 under setting [9], 0 of 6 under setting [10] and 0 of 6 under setting [11].
For the compound `O=C(Nc1ccccc1C1=NCCN1)Nc1ccccc1C1=NCCN1`, the survivor count under setting [11] is on record as 2 of 6.
With `CCCCCCCCCC(C)(O)C#CC(C)(O)CCCCCCCCC` (stereo not drawn), the survivor count is 4 of 6 (dose: 100.0 mg/kg/injection, schedule: Q04DX003 (ip), vehicle: saline with Tween-80); 6 of 6 (dose: 200.0 mg/kg/injection, schedule: Q04DX003 (ip), vehicle: saline with Tween-80); 4 of 6 under setting [15].
Turning to `NC(=O)NC(=O)CCl`, the survivor count reads like this: under setting [13], 6 of 6; under setting [3], 3 of 6; (dose: 400.0 mg/kg/injection, schedule: Q01DX009 (ip), vehicle: Klucel (hydroxypropylcellulose) (HPC)) 0 of 6. Moreover, the T/C is, setting by setting: under setting [2], 99, 110 [5 of 6 alive], 120, 122 % of control; under setting [3], 102, 115 [4 of 6 alive], 126 % of control.
Turning to `CCN(CC)CCNc1ncnc(N)c1C(=C(C)C)c1ccc(Cl)cc1`, the survivor count under setting [12] is reported as 4 of 6 and the survivor count under setting [7] is given as 4 of 6.
